# In PMC4719301:
# Chains of the proteins cited; added tags and fusions are not shown.
# UniProt P47941: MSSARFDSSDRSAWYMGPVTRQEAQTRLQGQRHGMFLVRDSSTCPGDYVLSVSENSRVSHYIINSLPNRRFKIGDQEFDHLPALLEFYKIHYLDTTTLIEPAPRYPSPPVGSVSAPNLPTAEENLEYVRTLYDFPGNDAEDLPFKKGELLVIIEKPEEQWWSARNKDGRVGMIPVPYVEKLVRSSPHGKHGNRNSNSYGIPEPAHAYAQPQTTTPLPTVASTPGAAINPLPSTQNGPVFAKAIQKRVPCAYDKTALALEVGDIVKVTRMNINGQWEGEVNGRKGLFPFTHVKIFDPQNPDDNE
# UniProt Q4JIM5: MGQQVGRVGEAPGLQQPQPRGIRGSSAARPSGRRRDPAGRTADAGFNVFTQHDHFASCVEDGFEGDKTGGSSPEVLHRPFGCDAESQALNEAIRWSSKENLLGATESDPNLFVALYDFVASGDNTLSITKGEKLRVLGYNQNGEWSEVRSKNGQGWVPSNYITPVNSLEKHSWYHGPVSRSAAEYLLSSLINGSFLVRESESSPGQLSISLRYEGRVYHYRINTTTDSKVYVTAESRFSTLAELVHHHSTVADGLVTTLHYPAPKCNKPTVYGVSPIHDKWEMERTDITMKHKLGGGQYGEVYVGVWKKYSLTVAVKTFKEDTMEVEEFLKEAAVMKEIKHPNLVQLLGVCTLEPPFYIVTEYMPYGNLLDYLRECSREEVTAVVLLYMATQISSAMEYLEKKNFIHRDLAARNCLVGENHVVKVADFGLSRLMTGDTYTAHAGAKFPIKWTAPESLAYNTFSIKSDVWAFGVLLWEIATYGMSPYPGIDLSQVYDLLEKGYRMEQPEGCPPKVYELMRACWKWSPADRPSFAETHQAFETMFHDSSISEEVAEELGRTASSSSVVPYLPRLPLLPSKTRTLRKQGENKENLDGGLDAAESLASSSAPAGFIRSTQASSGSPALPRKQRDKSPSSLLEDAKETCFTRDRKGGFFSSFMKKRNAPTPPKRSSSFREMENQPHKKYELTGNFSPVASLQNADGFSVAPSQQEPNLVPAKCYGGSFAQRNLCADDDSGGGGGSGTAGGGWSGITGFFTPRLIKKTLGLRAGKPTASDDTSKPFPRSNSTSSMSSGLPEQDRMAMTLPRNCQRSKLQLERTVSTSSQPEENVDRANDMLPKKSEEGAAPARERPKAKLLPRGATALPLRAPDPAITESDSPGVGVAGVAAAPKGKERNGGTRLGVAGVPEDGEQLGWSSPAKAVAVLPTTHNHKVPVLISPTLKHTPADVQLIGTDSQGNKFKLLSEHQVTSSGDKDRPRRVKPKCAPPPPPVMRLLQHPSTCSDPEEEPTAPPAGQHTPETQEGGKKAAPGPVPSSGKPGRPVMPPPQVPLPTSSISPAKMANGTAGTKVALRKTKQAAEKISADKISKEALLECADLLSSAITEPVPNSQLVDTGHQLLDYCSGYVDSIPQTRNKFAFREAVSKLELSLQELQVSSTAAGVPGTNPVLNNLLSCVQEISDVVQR
# UniProt E9Q7D5: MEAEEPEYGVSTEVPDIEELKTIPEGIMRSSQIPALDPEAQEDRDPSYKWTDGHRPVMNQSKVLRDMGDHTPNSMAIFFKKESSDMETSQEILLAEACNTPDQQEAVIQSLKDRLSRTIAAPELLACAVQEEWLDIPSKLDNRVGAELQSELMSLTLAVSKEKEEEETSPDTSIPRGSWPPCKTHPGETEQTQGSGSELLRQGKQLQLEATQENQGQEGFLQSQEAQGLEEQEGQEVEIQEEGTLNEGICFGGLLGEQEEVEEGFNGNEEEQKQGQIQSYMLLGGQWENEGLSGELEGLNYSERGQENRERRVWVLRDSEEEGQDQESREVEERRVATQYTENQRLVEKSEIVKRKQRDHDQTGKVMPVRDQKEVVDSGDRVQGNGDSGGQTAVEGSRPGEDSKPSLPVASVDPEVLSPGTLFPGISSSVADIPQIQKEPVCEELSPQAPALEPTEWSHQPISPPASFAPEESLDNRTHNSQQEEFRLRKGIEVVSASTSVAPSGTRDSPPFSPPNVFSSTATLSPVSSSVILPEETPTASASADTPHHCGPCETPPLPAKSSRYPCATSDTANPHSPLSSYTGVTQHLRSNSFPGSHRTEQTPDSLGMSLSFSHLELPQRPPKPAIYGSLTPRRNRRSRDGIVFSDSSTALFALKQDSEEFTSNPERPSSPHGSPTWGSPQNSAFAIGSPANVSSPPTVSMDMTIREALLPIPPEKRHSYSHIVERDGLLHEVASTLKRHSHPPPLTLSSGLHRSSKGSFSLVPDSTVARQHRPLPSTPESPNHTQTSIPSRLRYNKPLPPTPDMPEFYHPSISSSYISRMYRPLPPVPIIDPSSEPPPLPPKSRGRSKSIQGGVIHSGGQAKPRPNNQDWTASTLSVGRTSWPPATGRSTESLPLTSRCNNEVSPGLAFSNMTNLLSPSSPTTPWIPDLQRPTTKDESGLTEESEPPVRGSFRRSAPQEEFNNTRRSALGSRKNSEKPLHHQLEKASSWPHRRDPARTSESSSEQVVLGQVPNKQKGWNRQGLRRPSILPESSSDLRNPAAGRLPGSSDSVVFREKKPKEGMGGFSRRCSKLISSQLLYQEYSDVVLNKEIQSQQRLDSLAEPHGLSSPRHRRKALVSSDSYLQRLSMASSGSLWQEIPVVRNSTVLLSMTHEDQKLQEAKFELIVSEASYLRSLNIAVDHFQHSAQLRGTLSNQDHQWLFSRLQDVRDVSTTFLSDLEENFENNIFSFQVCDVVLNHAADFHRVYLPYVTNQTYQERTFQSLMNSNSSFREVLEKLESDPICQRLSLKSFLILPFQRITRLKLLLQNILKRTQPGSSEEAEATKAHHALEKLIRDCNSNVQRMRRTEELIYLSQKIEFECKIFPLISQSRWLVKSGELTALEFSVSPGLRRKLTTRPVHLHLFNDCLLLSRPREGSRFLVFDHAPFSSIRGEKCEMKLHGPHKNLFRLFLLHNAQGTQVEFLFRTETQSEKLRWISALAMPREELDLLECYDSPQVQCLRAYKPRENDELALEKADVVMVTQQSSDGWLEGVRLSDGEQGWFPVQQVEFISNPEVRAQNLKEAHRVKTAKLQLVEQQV
# Target: TAP-CrkL (mouse) (UniProt P47941)
# Assay: affinity purification with mass spectrometry; TAP-CrkL purified from lysates of transfected C2C12 myotubes; SDS-PAGE, silver stain, gel slices digested with trypsin, LC-MS/MS, iBAQ; compared with a sham control
row,binding,Molecule
1,binds,Abl2 (from UniProt Q4JIM5 1-1182)
2,binds,Arhgef5 (from UniProt E9Q7D5 1-1581)

# Target: TAP-CrkL (mouse) (UniProt P47941)
# Assay: as above
# Remark: another data set of the same source
row,binding,Molecule
1,binds,"Tks5 (protein, UniProt O89032 1-1124) MLAYCVQDATVVDVEKRRSPSKHYVYIINVTWSDSTSQTIYRRYSKFFDLQMQLLDKFPIEGGQKDPKQRIIPFLPGKILFRRSHIRDVAVKRLKPIDEYCRALVRLPPHISQCDEVFRFFEARPEDVNPPKEDYGSSKRKSVWLSSWAESPKKDVTGADTNAEPMILEQYVVVSNYKKQENSELSLQAGEVVDVIEKNESGWWFVSTSEEQGWVPATYLEAQNGTRDDSDINTSKTGEVSKRRKAHLRRLDRRWTLGGMVNRQHSREEKYVTVQPYTSQSKDEIGFEKGVTVEVIRKNLEGWWYIRYLGKEGWAPASYLKKAKDDLPTRKKNLAGPVEIIGNIMEISNLLNKKASGDKEAPAEGEGSEAPITKKEISLPILCNASNGSALAIPERTTSKLAQGSPAVARIAPQRAQISSPNLRTRPPPRRESSLGFQLPKPPEPPSVEVEYYTIAEFQSCISDGISFRGGQKAEVIDKNSGGWWYVQIGEKEGWAPASYIDKRKKPNLSRRTSTLTRPKVPPPAPPSKPKEAEENPVGACESQGSPLKVKYEEPEYDVPAFGFDSEPEMNEEPSGDRGSGDKHPAQPRRISPASSLQRAHFKVGESSEDVALEEETIYENEGFRPYTEDTLSARGSSGDSDSPGSSSLSLAVKNSPKSDSPKSSSLLKLKAEKNAQAELGKNQSNISFSSSVTISTTCSSSSSSSSLSKNNGDLKPRSASDAGIRDTPKVGTKKDPDVKAGLASCARAKPSVRPKPVLNRAESQSQEKMDISSLRRQLRPTGQLRGGLKGSRSEDSELPPQMASEGSRRGSADIIPLTATTPPCVPKKEWEGQGATYVTCSAYQKVQDSEISFPEGAEVHVLEKAESGWWYVRFGELEGWAPSHYLVAEENQQPDTASKEGDTGKSSQNEGKSDSLEKIEKRVQALNTVNQSKRATPPIPSKPPGGFGKTSGTVAVKMRNGVRQVAVRPQSVFVSPPPKDNNLSCALRRNESLTATDSLRGVRRNSSFSTARSAAAEAKGRLAERAASQGSESPLLPTQRKGIPVSPVRPKPIEKSQFIHNNLKDVYISIADYEGDEETAGFQEGVSMEVLEKNPNGWWYCQILDEVKPFKGWVPSNYLEKKN"
2,binds,"Sorbs1 (protein, UniProt Q62417 1-1290) MSSECDVGSSKAVVNGLASGNHGPDKDMDPTKICTGKGTVTLRASSSYRGTPSSSPVSPQESPKHESKSGLEPEDPSADEWKLSSSADTNGNAQPSPLAAKGYRSVHPSLSADKPQGSPLLNEVSSSHIETDSQDFPPTSRPSSAYPSTTIVNPTIVLLQHNRDPASERRAGEQDPVPTPAELTSPGRASERRAKDASRRVVRSAQDLSDVSTDEVGIPLRNTERSKDWYKTMFKQIHKLNRDDDSDVHSPRYSFSDDTKSPLSVPRSKSEMNYIEGEKVVKRSATLPLPARSSSLKSSPERNDWEPLDKKVDTRKYRAEPKSIYEYQPGKSSVLTNEKMSRDISPEEIDLKNEPWYKFFSELEFGRPTNLEKDLSFCQAELEADLEKVETVNKSPSANSPQSSAVSPTPDITSEPPGYIYSSNFHAVKRESDGTPGGLASLENERQIYKSVLEGGDIPLQGLSGLKRPSSSASTKVDRKGGNAHMISSSSVHSRTFHTSNALGPGCKHKKPLSAAKACISEILPSKFKPRLSAPSALLQEQKSVLLPSEKAQSCENLCVSLNDSKRGLPLRVGGSIENLLMRSRRDYDSKSSSTMSLQEYGTSSRRPCPLSRKAGLHFSMFYRDMHQINRAGLSLGSISSSSVRDLASHFERSSLTLARGELGASQEGSEHIPKHTVSSRITAFEQLIQRSRSMPSLDFSGRLSKSPTPVLSRSGLTSARSAESLLESTKLRPREMDGMDSGGVYASPTCSNMADHALSFRSLVPSEPLSICSDELDHCSNVSNDSREGSGGSVHGDFPKHRLNKCKGTCPASYTRFTTIRKHEQQSSRQSDWRSDSRGDKNSLLRNIHLMSPLPFRLKKPLQQHPRQPPPSDSSESPAGQKADLPCHDPQDQPHSAGKPQVPTRLSSRHTMARLSHNSEPPLDRPAGLEDCTRAINNGNPVPYSDHGLDRNNNPQSELAAAHGDSESPRHFIPADYLESTEEFIRRRHDDKEKLLADQRRLKREQEEADIAARRHTGVIPTHHQFITNERFGDLLNIDDTAKRKSGLEMRPARAKFDFKAQTLKELPLQKGDVVYIYRQIDQNWYEGEHHGRVGIFPRTYIELLPPAEKAQPRKLAPVQVLEYGEAIAKFNFNGDTQVEMSFRKGERITLLRQVDENWYEGRIPGTSRQGIFPITYVDVLKRPLVKTPVDYIDLPYSSSPSRSATVSPQQPQAQQRRVTPDRSQPSLDLCSYQALYSYVPQNDDELELRDGDIVDVMEKCDDGWFVGTSRRTRQFGTFPGNYVKPLYL"
3,binds,"Sorbs2 (protein, UniProt Q3UTJ2 1-1180) MNTDSGGCARKRAAMSVTLTSVKRVQSSPNLLAAGRESQSPDSAWRSYNDRNPETLNGDATYSSLAAKGFRSVRPNLQDKRSPTQSQITINGNSGGAVSPVSYYQRPFSPSAYSLPASLNSSIIMQHGRSLDSAETYSQHAQSLDGTMGSSIPLYRSSEEEKRVTVIKAPHYPGIGPVDESGIPTAIRTTVDRPKDWYKTMFKQIHMVHKPGLYNSPYSAQSHPAAKTQTYRPLSKSHSDNGTDAFKEVPSPVPPPHVPPRPRDQSSTLKHDWDPPDRKVDTRKFRSEPRSIFEYEPGKSSILQHERPVSIYQSSIDRSLERPSSSASMAGDFRKRRKSEPAVGPLRGLGDQSSSRTSPGRADLPGSSSTFTKSFISSSPSSPSRAQGGDDSKMCPPLCSYSGLNGTPSGELECCNAYRQHLDVPGDSQRAITFKNGWQMARQNAEIWSSTEETVSPKIKSRSCDDLLNDDCDSFPDPKTKSESMGSLLCEEDSKESCPMTWASPYIQEVCGNSRSRLKHRSAHNAPGFLKMYKKMHRINRKDLMNSEVICSVKSRILQYEKEQQHRGLLHGWSQSSTEEVPRDVVPTRISEFEKLIQKSKSMPNLGDEMLSPITLEPPQNGLCPKRRFSIESLLEEETQVRHPSQGQRSCKSNTLVPIHIEVTSDEQPRTHMEFSDSDQDGVVSDHSDYVHVEGSSFCSESDFDHFSFTSSESFYGSSHHHHHHHHHHRHLISSCKGRCPASYTRFTTMLKHERAKHENMDRPRRQEMDPGLSKLAFLVSPVPFRRKKILTPQKQTEKAKCKASVVEALDSALKDICDQIKAEKRRGSLPDNSILHRLISELLPQIPERNSSLHALKRSPMHQPFHPLPPDGASHCPLYQNDCGRMPHSASFPDVDTTSNYHAQDYGSALSLQDHESPRSYSSTLTDLGRSASRERRGTPEKEKLPAKAVYDFKAQTSKELSFKKGDTVYILRKIDQNWYEGEHHGRVGIFPISYVEKLTPPEKAQPARPPPPVQPGEIGEAIAKYNFNADTNVELSLRKGDRIILLKRVDQNWYEGKIPGTNRQGIFPVSYVEVVKRNAKGAEDYPDPPLPHSYSSDRIYTLSSNKPQRPGFSHENIQGGGEPFQALYNYTPRNEDELELRESDVVDVMEKCDDGWFVGTSRRTKFFGTFPGNYVKRL"

# Further lines, the molecule ahead of its results:
row,Molecule,binding
1,"Dok-7 (protein, UniProt Q18PE0 1-504) MTEAALVEGQVKLRDGKKWKSRWLVLRKPSPVADCLLMLVYKDKCERSKGLRERSSLTLEDICGLEPALPYEGLAHTLAIICLSQAVMLGFDSHEAMCAWDTRIRYALGEVHRFHVTVAPGTKLESGPATLHLCNDILVLARDIPPTVMGQWKLSDLRRYGAVPNGFIFEGGTRCGYWAGVFFLSSAEGEQMSFLFDCIVRGISPTKGPFGLRPVLPDPSSGGPSASEERVAQEALEALQLEKRLSLLSHSGRPGSGGDDRSLSSSSSEASHSDISASSRLTAWPEQSSSSAGTSQEGPGLVAAQGPGEAMLGASRPPLKPLRPRQLQEVGRQSSSDSGIATGSHSSYSGSFSSYAGSNLDVWRAGEEFGSLLSLPPGASAPEPRLCACPPGAAEYQVPTSLRHHYDTPRSLRQAPRDPSPASQGSSDHGSATDLGGQAPTGCPSSWLGARRRGQATEGPGSDAALPSPSPGESWEAGSPHAGPPPAFFLSCSICGGLKVKPPP",binds
2,"LL5beta (protein, UniProt Q8K1N2 1-1249) MAEDSHMQKQLEFQNGSLEEGFVVRSLENEPQNMMESLSPRKYSSSLKFKANGDYSGSYLTLSQPVSAKRSPSPMGTSVRSSPSLAKIQGSKQFCDGIDKNISMKPPISFLSSAASLGGYPLGKADLDHYTGRDSERSTRLSEKPPYSRYSSRNKSHDSVYFLGGLEGRKTSGSLLTMWNGNSLSCTGSSPISRSGAASMPSSPKQVRKMNLQDHSTLQPRLSRHKEPASENVSVRTRKYSGSSLSNMGAYSRSLPRLYKATDNQMSPLSLPPRSSLGNSRRGQLGEKDLPHSLVDSDNYLNFSSLSSGASPYKTCLSEGNPYVSSALSVPASPRVARKMLLASTSSDDFDRASYSGTSPSHSFISGEPDRVLVARRNFSCGSMELDDSDLESLRQSSETPQPVLRERKSSISSISGRDDLMDYHRRQREERLREQEMERLERQRLETILSLCAEYTKPEGRRLSAGTTVADVQKINKELEKLQLSDEESVFEDALVCPDARYRCHRKGSLQDVDVAGFGNLGHSASFLAPRGSRSDELLGDLTRTPPSSSAAFLKATNESSYLSILPKTPEDIGEEQRTQELAAMEDARMVILNNLEELEQKIKDINDQMDESSRELDMECALLDGEQKSETAELMKEKEILDHLNRKITELEKNIVGEKTKEKVKLDAEREKLERLQELYSEQKTQLDNCPESMREQLQQQLKRDADLLDVESKHFEDLEFQQLEHESRLDEEKENLTQQLLREVAEYQRNIVARKEKISALKKQASHIVQQAQREQDHFVKEKNNLIMMLQREKENLCNLEKKYSSLTGGKGFPINPNTLKEGYISVNEINESCGNSTNLSPSTQFPADADAAVTEPALAVPVSQPQSSEHFRSLEERKKQHKEGLYLSDTLPRKKTTPSLSPHFSSATMGRSTTPKAHLPLGQSNSCGSVLPHSLATMTKDSESRRMLRGYNHQQMSEGQRQKPEFYSRTASESNVYLNSFHYPDRSYKDQAYDTLSLDSSDSMETSISACSPDNISSASTSNIARIEEMERLLKQAHAEKTRLLESREREMEAKKRALEEEKRRREILEKRLQEETSQRQKLIEKEVKIREKQRAQARPLTRYLPVRKEDFDLRSHVETAGHNIDTCFHVSITEKTCRGYLIKMGGKIKTWKKRWFVFDRNKRTFSYYADKHEAKLKGVIYFQAIEEVYYDHLKNANKSPNPLLTFSVKTHDRIYYMVAPSPEAMRIWMDVIVTGAEGYTHFLL",binds
3,"Elmo2 (protein, UniProt Q8BHL5 1-732) MPPPSDIVKVAIEWPGANAQLLEIDQKRPLASIIKEVCDGWSLPNPEYYTLRYADGPQLYVTEQTRNDIKNGTILQLAVSPSRAARQLMERTQSSSMETRLDAMKELAKLSADVTFATEFINMDGIIVLTRLVESGTKLLSHYSEMLAFTLTAFLELMDHGIVSWDMVSVTFIKQIAGYVSQPMVDVSILQRSLAILESMVLNSQSLYQKIAEEITVGQLISHLQVSNQEIQTYAIALINALFLKAPEDKRQDKHLNPLDLPVTDMANAFAQKHLRSIILNHVIRGNRPIKTEMAHQLYVLQVLTFNLLEERMMTKMDPNDQAQRDIIFELRRIAFDAESDPSNVPGSGTEKRKAMYTKDYKMLGFTNHINPALDFTQTPPGMLALDNMLYLAKVHQDTYIRIVLENSSREDKHECPFGRSAIELTKMLCEILQVGELPNEGRNDYHPMFFTHDRAFEELFGICIQLLNKTWKEMRATAEDFNKVMQVVREQITRALPSKPNSLDQFKSKLRSLSYSEILRLRQSERMSQDDFQSPPIVELREKIQPEILELIKQQRLNRLCEGSSFRKIGNRRRQERFWHCRLALNHKVLHYGDLDDNPQGEVTFESLQEKIPVADIKAIVTGKDCPHMKEKSALKQNKEVLELAFSILYDPDETLNFIAPNKYEYCIWIDGLSALLGKDMSSELTKSDLDTLLSMEMKLRLLDLENIQIPEAPPPVPKEPSSYDFVYHYG",binds

# Results are given in words; binding and its absence hold for the method and conditions named. Binding seen in cells or lysates may run through a third protein. Here binding means that the protein was enriched with, or labelled near, the bait; the list need not be complete.
